The labels stand for the following.
B1: Fructose-bisphosphate aldolase (protein, UniProt P04075 1-364)
chain: MPYQYPALTPEQKKELSDIAHRIVAPGKGILAADESTGSIAKRLQSIGTENTEENRRFYRQLLLTADDRVNPCIGGVILFHETLYQKADDGRPFPQVIKSKGGVVGIKVDKGVVPLAGTNGETTTQGLDGLSERCAQYKKDGADFAKWRCVLKIGEHTPSALAIMENANVLARYASICQQNGIVPIVEPEILPDGDHDLKRCQYVTEKVLAAVYKALSDHHIYLEGTLLKPNMVTPGHACTQKFSHEEIAMATVTALRRTVPPAVTGITFLSGGQSEEEASINLNAINKCPLLKPWALTFSYGRALQASALKAWGGKKENLKAAQEEYVKRALANSLACQGKYTPSGQAGAAASESLFVSNHAY
B2: Peptidyl-prolyl cis-trans isomerase FKBP4 (protein, UniProt Q02790 1-459)
chain: MTAEEMKATESGAQSAPLPMEGVDISPKQDEGVLKVIKREGTGTEMPMIGDRVFVHYTGWLLDGTKFDSSLDRKDKFSFDLGKGEVIKAWDIAIATMKVGEVCHITCKPEYAYGSAGSPPKIPPNATLVFEVELFEFKGEDLTEEEDGGIIRRIQTRGEGYAKPNEGAIVEVALEGYYKDKLFDQRELRFEIGEGENLDLPYGLERAIQRMEKGEHSIVYLKPSYAFGSVGKEKFQIPPNAELKYELHLKSFEKAKESWEMNSEEKLEQSTIVKERGTVYFKEGKYKQALLQYKKIVSWLEYESSFSNEEAQKAQALRLASHLNLAMCHLKLQAFSAAIESCNKALELDSNNEKGLFRRGEAHLAVNDFELARADFQKVLQLYPNNKAAKTQLAVCQQRIRRQLAREKKLYANMFERLAEEENKAKAEASSGDHPTDTEMKEEQKSNTAGSQSQVETEA
B3: Junction plakoglobin (protein, UniProt P14923 1-745)
chain: MEVMNLMEQPIKVTEWQQTYTYDSGIHSGANTCVPSVSSKGIMEEDEACGRQYTLKKTTTYTQGVPPSQGDLEYQMSTTARAKRVREAMCPGVSGEDSSLLLATQVEGQATNLQRLAEPSQLLKSAIVHLINYQDDAELATRALPELTKLLNDEDPVVVTKAAMIVNQLSKKEASRRALMGSPQLVAAVVRTMQNTSDLDTARCTTSILHNLSHHREGLLAIFKSGGIPALVRMLSSPVESVLFYAITTLHNLLLYQEGAKMAVRLADGLQKMVPLLNKNNPKFLAITTDCLQLLAYGNQESKLIILANGGPQALVQIMRNYSYEKLLWTTSRVLKVLSVCPSNKPAIVEAGGMQALGKHLTSNSPRLVQNCLWTLRNLSDVATKQEGLESVLKILVNQLSVDDVNVLTCATGTLSNLTCNNSKNKTLVTQNSGVEALIHAILRAGDKDDITEPAVCALRHLTSRHPEAEMAQNSVRLNYGIPAIVKLLNQPNQWPLVKATIGLIRNLALCPANHAPLQEAAVIPRLVQLLVKAHQDAQRHVAAGTQQPYTDGVRMEEIVEGCTGALHILARDPMNRMEIFRLNTIPLFVQLLYSSVENIQRVAAGVLCELAQDKEAADAIDAEGASAPLMELLHSRNEGTATYAAAVLFRISEDKNPDYRKRVSVELTNSLFKHDPAAWEAAQSMIPINEPYGDDMDATYRPMYSSDVPLDPLEMHMDMDGDYPIDTYSDGLRPPYPTADHMLA
B4: Four and a half LIM domains protein 2 (protein, UniProt Q14192 1-279)
chain: MTERFDCHHCNESLFGKKYILREESPYCVVCFETLFANTCEECGKPIGCDCKDLSYKDRHWHEACFHCSQCRNSLVDKPFAAKEDQLLCTDCYSNEYSSKCQECKKTIMPGTRKMEYKGSSWHETCFICHRCQQPIGTKSFIPKDNQNFCVPCYEKQHAMQCVQCKKPITTGGVTYREQPWHKECFVCTACRKQLSGQRFTARDDFAYCLNCFCDLYAKKCAGCTNPISGLGGTKYISFEERQWHNDCFNCKKCSLSLVGRGFLTERDDILCPDCGKDI

Amino acid sequences for entries named in this document (tags omitted).
UniProt Q3V6T2: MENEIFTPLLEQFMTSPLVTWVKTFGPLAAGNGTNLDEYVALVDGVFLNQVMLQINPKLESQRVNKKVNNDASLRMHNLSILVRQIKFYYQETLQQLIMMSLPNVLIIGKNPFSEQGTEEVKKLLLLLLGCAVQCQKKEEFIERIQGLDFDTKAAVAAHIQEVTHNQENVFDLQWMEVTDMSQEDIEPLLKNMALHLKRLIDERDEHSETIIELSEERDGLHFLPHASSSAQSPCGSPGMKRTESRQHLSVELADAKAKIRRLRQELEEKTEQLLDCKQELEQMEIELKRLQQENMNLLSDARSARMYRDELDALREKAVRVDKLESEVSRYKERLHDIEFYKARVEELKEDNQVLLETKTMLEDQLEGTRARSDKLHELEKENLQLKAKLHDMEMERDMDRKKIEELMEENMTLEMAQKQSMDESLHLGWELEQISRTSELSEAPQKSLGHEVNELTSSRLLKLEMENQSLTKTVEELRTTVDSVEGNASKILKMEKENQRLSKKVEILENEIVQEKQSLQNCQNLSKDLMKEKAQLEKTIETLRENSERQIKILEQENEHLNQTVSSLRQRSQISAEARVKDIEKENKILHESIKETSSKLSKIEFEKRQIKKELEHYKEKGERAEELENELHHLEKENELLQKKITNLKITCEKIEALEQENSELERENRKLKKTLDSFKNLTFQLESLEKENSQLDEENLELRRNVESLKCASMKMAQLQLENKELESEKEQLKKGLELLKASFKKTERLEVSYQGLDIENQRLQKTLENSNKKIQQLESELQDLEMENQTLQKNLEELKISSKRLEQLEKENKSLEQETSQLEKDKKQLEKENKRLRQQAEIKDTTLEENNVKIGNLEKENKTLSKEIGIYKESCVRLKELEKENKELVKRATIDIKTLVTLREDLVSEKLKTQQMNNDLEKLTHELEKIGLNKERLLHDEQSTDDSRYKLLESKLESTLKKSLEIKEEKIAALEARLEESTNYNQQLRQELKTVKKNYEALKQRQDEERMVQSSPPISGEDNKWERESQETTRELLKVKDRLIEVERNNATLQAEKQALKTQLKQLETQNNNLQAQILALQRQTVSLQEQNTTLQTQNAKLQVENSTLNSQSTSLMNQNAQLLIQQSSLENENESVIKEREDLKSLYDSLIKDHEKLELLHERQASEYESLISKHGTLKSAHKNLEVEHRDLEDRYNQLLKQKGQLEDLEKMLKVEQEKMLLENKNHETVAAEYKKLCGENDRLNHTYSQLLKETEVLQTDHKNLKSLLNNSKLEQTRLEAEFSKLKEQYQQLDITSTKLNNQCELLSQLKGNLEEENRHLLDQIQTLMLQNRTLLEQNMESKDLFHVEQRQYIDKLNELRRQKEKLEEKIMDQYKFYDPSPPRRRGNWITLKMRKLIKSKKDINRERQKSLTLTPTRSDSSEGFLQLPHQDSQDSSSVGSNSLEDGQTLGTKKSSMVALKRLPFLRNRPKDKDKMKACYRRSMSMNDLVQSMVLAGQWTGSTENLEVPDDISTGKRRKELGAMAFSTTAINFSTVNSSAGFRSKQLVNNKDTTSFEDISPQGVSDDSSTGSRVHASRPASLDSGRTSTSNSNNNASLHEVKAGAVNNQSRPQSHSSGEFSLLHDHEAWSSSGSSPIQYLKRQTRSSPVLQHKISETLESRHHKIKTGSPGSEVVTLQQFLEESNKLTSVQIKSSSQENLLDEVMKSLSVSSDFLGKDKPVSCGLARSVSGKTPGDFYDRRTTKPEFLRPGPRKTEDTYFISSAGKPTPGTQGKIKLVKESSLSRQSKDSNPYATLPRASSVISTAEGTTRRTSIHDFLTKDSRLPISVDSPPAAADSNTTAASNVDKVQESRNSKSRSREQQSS

These are yes or no findings as the source states them, for the method shown. In cells and extracts the contact can be indirect. These calls come from enrichment with a bait or labelling near it, and not all partners need be listed.

The target of this test is Girdin (girders of actin filament) (human (endogenous in BxPC-3 and PANC-1)) (UniProt Q3V6T2). The experiment in a line: affinity purification with mass spectrometry; lysates of BxPC-3 cells transfected with Scramble or Girdin lentivirus, immunoprecipitated with anti-Girdin antibody; LC-MS/MS on LTQ-Orbitrap, MaxQuant.
Consider B1, for which the binding result is on record as “binds”.

B2: the binding result was “binds”.

Take B3: the binding entry is “binds”.

Consider B4, for which the binding result is “binds”.

For the origin of these results see publication PMC8039524.
